Results are given in words; binding and its absence hold for the method and conditions named. Binding seen in cells or lysates may run through a third protein. Some entries that bind do so weakly or less than the wild type.
Biological target: GFP-SYP121 (Arabidopsis thaliana) (UniProt Q9ZSD4)
Experiment: co-IP

The chains behind the UniProt entries cited, without tags or fusion partners.
UniProt Q9ZSD4, whole entry: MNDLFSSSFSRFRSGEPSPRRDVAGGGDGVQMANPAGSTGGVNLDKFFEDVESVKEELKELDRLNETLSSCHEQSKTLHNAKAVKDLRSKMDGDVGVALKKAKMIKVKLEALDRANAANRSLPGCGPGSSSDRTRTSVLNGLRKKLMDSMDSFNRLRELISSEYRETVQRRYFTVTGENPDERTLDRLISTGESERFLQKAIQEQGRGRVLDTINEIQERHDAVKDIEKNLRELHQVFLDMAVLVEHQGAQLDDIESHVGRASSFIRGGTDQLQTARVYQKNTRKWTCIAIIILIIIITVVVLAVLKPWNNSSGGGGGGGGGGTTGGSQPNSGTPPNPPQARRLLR
UniProt Q94AI6, whole entry: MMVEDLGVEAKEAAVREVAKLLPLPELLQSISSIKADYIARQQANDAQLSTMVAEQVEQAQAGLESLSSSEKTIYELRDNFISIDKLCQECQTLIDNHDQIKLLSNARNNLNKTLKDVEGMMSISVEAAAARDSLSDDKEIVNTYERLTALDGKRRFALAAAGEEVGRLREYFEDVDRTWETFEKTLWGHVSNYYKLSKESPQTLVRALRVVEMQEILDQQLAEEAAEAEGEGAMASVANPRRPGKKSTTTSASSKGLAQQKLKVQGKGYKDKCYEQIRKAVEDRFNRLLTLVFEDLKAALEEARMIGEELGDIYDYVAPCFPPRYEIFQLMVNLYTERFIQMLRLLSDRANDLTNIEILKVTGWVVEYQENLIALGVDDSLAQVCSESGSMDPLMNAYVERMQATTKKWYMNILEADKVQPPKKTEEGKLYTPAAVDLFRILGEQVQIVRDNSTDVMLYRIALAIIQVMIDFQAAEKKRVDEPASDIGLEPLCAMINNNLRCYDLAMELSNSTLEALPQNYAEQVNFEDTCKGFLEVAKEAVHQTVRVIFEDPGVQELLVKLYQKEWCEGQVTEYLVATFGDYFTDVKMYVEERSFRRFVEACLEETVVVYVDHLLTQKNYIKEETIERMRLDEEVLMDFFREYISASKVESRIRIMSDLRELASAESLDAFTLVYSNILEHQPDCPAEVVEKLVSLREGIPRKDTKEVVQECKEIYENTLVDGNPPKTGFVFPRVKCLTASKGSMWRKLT

How did the binding turn out when SEC6 (from UniProt Q94AI6 1-752) was run?
Its binding is “binds”.

Source: doi:10.1101/2021.06.20.449050
